The text below walks through data of PMC2989915.

Chains of the proteins cited; added tags and fusions are not shown. Lines headed by an entry give the natural chain unless they say otherwise; changes in a name come on top.
UniProt P42225: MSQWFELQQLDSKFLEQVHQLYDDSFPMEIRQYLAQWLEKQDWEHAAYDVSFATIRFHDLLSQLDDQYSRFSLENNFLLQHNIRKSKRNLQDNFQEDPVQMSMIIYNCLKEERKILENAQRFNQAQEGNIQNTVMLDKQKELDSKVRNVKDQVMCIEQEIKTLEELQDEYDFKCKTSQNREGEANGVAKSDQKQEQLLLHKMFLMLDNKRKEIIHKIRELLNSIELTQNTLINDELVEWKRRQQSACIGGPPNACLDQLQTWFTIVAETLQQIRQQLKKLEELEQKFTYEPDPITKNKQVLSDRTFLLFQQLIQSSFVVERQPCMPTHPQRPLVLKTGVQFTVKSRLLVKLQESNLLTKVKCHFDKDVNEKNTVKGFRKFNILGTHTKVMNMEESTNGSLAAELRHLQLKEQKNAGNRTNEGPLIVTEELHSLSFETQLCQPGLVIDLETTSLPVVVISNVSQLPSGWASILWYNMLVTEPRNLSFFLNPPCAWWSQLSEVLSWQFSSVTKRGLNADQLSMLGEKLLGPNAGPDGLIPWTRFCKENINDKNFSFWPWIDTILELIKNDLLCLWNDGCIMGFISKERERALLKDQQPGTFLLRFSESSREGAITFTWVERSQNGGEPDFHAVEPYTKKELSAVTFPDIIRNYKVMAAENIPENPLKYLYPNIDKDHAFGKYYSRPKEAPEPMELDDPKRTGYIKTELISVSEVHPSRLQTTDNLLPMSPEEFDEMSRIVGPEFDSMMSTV

In this data set the target is pSTAT1 (phosphorylated STAT1, IFN-γ-activated) (UniProt P42225). Briefly: EMSA with anti-pSTAT1 mAb. Conditions: IFN-γ-treated 5KC nuclear extract; 10 mM Tris-HCl pH 7.5, 1 mM MgCl2, 0.5 mM EDTA, 0.5 mM DTT, 50 mM NaCl, 4% glycerol, 0.05 mg/ml poly(dI-dC), 20 µg nuclear extract, 20 min at room temperature; protein in an extract.

Construct, isoform or probe ends are uncertain for at least one entry. At least one result comes from cells or an extract, where the contact may be indirect.

Regarding “TAAAGACTTCCCAGAATTCCAA (double strand) [survivin promoter GAS probe]”, the binding result was “binds”.
